# Source: PubChem BioAssay AID1469 (National Center for Advancing Translational Sciences (NCATS), 2008)
# Amino acid sequences for entries named in this document (tags omitted). A change or cut given only in a name is not applied to a line headed by its entry.
# UniProt P10828: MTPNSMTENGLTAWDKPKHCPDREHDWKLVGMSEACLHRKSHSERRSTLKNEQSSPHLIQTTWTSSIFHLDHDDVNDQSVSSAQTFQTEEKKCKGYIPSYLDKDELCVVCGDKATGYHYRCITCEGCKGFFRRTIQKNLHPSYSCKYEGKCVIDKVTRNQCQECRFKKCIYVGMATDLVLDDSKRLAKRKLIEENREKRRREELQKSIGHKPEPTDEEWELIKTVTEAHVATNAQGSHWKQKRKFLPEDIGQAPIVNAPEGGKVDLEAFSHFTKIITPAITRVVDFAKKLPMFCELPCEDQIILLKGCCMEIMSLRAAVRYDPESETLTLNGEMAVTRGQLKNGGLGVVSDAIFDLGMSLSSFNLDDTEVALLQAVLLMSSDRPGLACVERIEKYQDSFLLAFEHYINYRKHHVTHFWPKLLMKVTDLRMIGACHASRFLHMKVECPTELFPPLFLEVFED
# “And” between values parts separate entries of the source, which are not always exact repeats. Equal entries are not always repeated. Among all 280,000 compounds or so, about 180 (0.064%) were called active. This list was built around the results that the source calls inconclusive (neither active nor inactive); the mix of calls is not that of the screen. Calls come from the whole dose curve; as a rule, active = well fitted inhibition curve with a large enough effect; inconclusive = small, poorly fitted or top-dose-only effect, or effect the other way; inactive = flat fitted curve, though single readings scatter. A potency beside an inconclusive call is a rough fit, not a confirmed value.
# Molecular target: Thyroid hormone receptor beta (Homo sapiens) (UniProt P10828)
# Assay: qHTS for Inhibitors of the Interaction of Thyroid Hormone Receptor and Steroid Receptor Coregulator 2; note: nearly all actives have a fitted effect of over 50% in size;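 for activity change, negative = inhibition: plate controls were bound peptide for no effect and peptide without receptor for full effect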
# Conditions: TRbeta-SRC2 peptide binding, fluorescence polarization, receptor liganded with 1 µM T3; series mostly up to 106 µM; activity change, negative = inhibition: at the top concentration
# Procedure, shortened: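 A fluorescence polarization screen tested compounds at multiple concentrations against complex formation between 0.6 uM TRb ligand-binding domain and 20 nM Texas Red SRC2 peptide, with 1 uM T3 present; readout after 5 hr.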
# Potency is the fitted concentration of half-maximal effect.
SMILES,Potency,"activity change, negative = inhibition"
CC(C)OC(=O)CSc1nc(N)c(C#N)c(-c2ccco2)c1C#N,"inconclusive: 79.4 µM [inhibitor, partial curve]",–
O=c1[nH]nc(CNc2ccc(O)cc2)c2ccccc12,active: 28.2 µM,–
CC(=O)Oc1cc2c(C(=O)NCCCN3CCOCC3)c(C)oc2c2ccccc12,"inconclusive: 31.6 µM [inhibitor, partial curve]",–
Cc1ccc(CNc2ccc(O)cc2)cc1,active: 28.2 µM,–
COc1ccccc1NC(=O)c1sc2ncn(Cc3cccc4ccccc34)c(=O)c2c1C,"inconclusive: 14.1 µM [activator, single point]",–
CCS(=O)(=O)c1ccc(OC)c(N=Nc2ccc(O)c3ncccc23)c1,–,inactive: -11.5%
COc1cc(/C=C2\SC(=S)N(C(C(=O)O)c3ccccc3)C2=O)ccc1O (stereo not drawn),"inconclusive: 35.5 µM [activator, partial curve]",–
COc1cc2c(cc1NC(=O)Nc1ccc(F)cc1)oc1ccccc12,–,inactive: -2.23%
S=C([S-])NCCNC(=S)[S-].[Zn+2],"inconclusive: 44.7 µM [activator, full curve] and inconclusive: 50.1 µM [activator, full curve]",–
CCN(CC)S(=O)(=O)c1cccc(N=NC2=C(O)CCCC2=O)c1,active: 39.8 µM,–
CCOc1ccc2noc3c2c1C(=O)c1ccccc1-3,active: 50.1 µM,–
C=Cc1c(C)/c2[n-]/c1=C\c1[n-]c(c(CC)c1C)/C=c1\[n-]c3c(c1C)C(=O)C(C(=O)[O-])C=3c1[n-]c(c(C)c1CCC(=O)[O-])\C=2.[Cu].[Na+].[Na+] (stereo not drawn),active: 44.7 µM,–
CCCCCCCCCCCCC/C=C/C(O)C(COP(=O)(O)OCCN)NC(=O)CCCCCCCCCCCCCCCCC (stereo not drawn),–,inactive: -4.83%
CCN(CC)c1ccc(NC(=O)Nc2ccccc2C(F)(F)F)cc1,"inconclusive: 50.1 µM [inhibitor, single point]",–
CC1=C(C(=O)N2CCOCC2)C(c2cc(C)cs2)NC(=O)N1 (stereo not drawn),active: 20 µM,–
Cc1ccc(NC(=O)CSc2nnc(NC(=O)CN3CCOCC3)s2)cc1,–,inactive: -30.3%
Cn1c(=O)c(NCCc2ccccc2)c2c3c(cccc31)C(=O)c1ccccc1-2,active: 28.2 µM,–
COc1ccc(Br)cc1CNc1ccc(O)cc1,active: 8.91 µM,–
COc1ccc(OC)c(-c2c3cc(O)c(=O)cc-3oc3cc(O)c(O)cc23)c1,active: 25.1 µM,–
CN(C)CCOC(=O)CC12CC3CC(C1)CC(CC(=O)OCCN(C)C)(C3)C2,"inconclusive: 3.55 µM [inhibitor, single point]",–
Nc1ccn([C@@H]2O[C@H](CO)[C@@H](OP(=O)(O)O)[C@H]2O)c(=O)n1,"inconclusive: 70.8 µM [inhibitor, single point]",–
O=c1cc(CSc2n[nH]c(-c3ccccc3)n2)[nH]c2ccccc12,–,inactive: -3.86%
CN(C)/C=C1\SC(=S)N(c2ccc(Br)cc2)C1=O,"inconclusive: 11.2 µM [activator, full curve]",–

# Full records, quoted from the list.
# CCN(CC)c1ccc(NC(=O)Nc2ccccc2C(F)(F)F)cc1 is listed with Potency: inconclusive: 50.1 µM [inhibitor, single point]
# CC(C)OC(=O)CSc1nc(N)c(C#N)c(-c2ccco2)c1C#N is listed with Potency: inconclusive: 79.4 µM [inhibitor, partial curve]
# C=Cc1c(C)/c2[n-]/c1=C\c1[n-]c(c(CC)c1C)/C=c1\[n-]c3c(c1C)C(=O)C(C(=O)[O-])C=3c1[n-]c(c(C)c1CCC(=O)[O-])\C=2.[Cu].[Na+].[Na+] (stereo not drawn) is listed with Potency: active: 44.7 µM
# CC1=C(C(=O)N2CCOCC2)C(c2cc(C)cs2)NC(=O)N1 (stereo not drawn) is listed with Potency: active: 20 µM

# (more compounds)

SMILES,Potency,"activity change, negative = inhibition"
COc1ccc(NC(=O)c2ccc(-c3ccc([N+](=O)[O-])cc3)o2)cc1,"inconclusive: 28.2 µM [activator, partial curve]",–
Cc1c(C(=O)NCc2cccc(Cl)c2)sc2nc3n(c(=O)c12)CCCC3,–,inactive: -2.32%
Cc1cc(O)c(C=Nc2cccc(Cl)c2)c(=O)o1,"inconclusive: 44.7 µM [activator, partial curve]",–
Oc1cc(O)cc(/C=C/c2ccc(O)c(O)c2)c1,"inconclusive: 70.8 µM [activator, single point]",–
COc1cc(OC)c(NC(=O)Nc2ccc3c(c2)N(C)C(=O)c2ccccc2S3)cc1Cl,–,inactive: 0.543%
Cc1[nH][nH]c(=O)c1C(c1ccc(-c2cccc(Cl)c2)o1)c1c(C)[nH][nH]c1=O,"inconclusive: 12.6 µM [inhibitor, full curve, poor fit]",–
Cc1cccc(S(=O)(=O)c2cn(C)c3cc(N4CCN(c5ccccc5)CC4)c(F)cc3c2=O)c1,"inconclusive: 56.2 µM [activator, single point]",–
COc1ccc(CCn2c(N)c(C(=O)NCc3ccco3)c3nc4ccccc4nc32)cc1OC,"inconclusive: 3.55 µM [inhibitor, full curve]",–
Cc1c(S(=O)(=O)c2ccccn2)c(N)n(Cc2ccccc2)c1C,–,inactive: -21%
Cc1c2c(=O)n(-c3nc4ccccc4s3)nc-2cc(O)n1Cc1ccccc1,"inconclusive: 39.8 µM [activator, single point]",–
CCN1CCN(CCCNC(=O)Cn2c(-c3cccs3)cc3cc(F)ccc32)CC1,"inconclusive: 70.8 µM [inhibitor, partial curve]",–
Cc1ccc(S(=O)(=O)/N=C2/C=C(Sc3ncn[nH]3)C(=O)c3ccccc32)c(C)c1,active: 28.2 µM,–
COc1ccc(-n2c(N)c(C(=O)NCC3CCCO3)c3nc4ccccc4nc32)c(OC)c1 (stereo not drawn),"inconclusive: 7.08 µM [inhibitor, full curve]",–
CN1c2ccccc2C(C)(C)C12C=Nc1c(cc(N3CCOCC3)c3ccccc13)O2 (stereo not drawn),"inconclusive: 44.7 µM [inhibitor, partial curve]",–
C=C1C(=O)OC2CC1C(OC(C)=O)CC(C)=CCCC(C)=CCC[C@@]2(C)O (stereo partly drawn),–,inactive: -2.3%
O=C(NCC(c1cccnc1)N1CCc2ccccc21)c1ccc(F)cc1 (stereo not drawn),"inconclusive: 35.5 µM [activator, single point]",–
COc1ccc(S(=O)(=O)Nc2ccc(O)c3ccccc23)cc1,"inconclusive: 5.01 µM [inhibitor, full curve, poor fit]",–
Cc1ccc(S(=O)(=O)c2c(N)n(CC3CCOC3)c3nc4ccccc4nc23)cc1 (stereo not drawn),"inconclusive: 50.1 µM [inhibitor, partial curve]",–
Cc1cc2cc(CNC(=O)c3ccc(S(=O)(=O)N4CCOCC4)cc3)ccc2n1C,active: 39.8 µM,–
COc1ccc(CCn2c(O)cc3nn(-c4nc5ccccc5s4)c(=O)c-3c2C)cc1,"inconclusive: 39.8 µM [activator, partial curve]",–
CCCOc1ccc(Cn2c(O)cc(=O)[nH]c2=O)cc1,"inconclusive: 79.4 µM [inhibitor, partial curve]",–
O=C(CN1c2ccccc2S(=O)(=O)c2ccccc21)Nc1ccccc1Cl,–,inactive: 0.829%
COc1cc(SC)ccc1C(=O)NCCOc1c(C)cc(C)cc1C,"inconclusive: 28.2 µM [inhibitor, full curve]",–

SMILES,Potency,"activity change, negative = inhibition"
CCc1ccc(NC(=O)c2cc(-c3cccs3)on2)cc1,"inconclusive: 35.5 µM [activator, single point]",–
CCN1CC2=C(OC(N)=C(C#N)C2c2ccccc2)/C(=C\c2ccccc2)C1 (stereo not drawn),active: 44.7 µM,–
CCOC(=O)c1c(C)[nH]c(CCC(=O)NCCCN2CCN(c3ccccc3F)CC2)c1C,–,inactive: -10.1%
Cc1ccccc1-n1c(=O)/c(=C\c2ccco2)s/c1=C(/C#N)C(=O)Nc1ccccc1,"inconclusive: 39.8 µM [activator, partial curve]",–
CC1=C(C#N)C(=O)OC(C)(C)C1,"inconclusive: 39.8 µM [inhibitor, partial curve]",–
O=S(=O)(c1cccs1)N1CN(Cc2ccco2)c2nc3ccccc3nc21,"inconclusive: 56.2 µM [inhibitor, partial curve, poor fit]",–
CN1CCc2c(sc3c2C(=O)NC(c2cccs2)N3)C1 (stereo not drawn),"inconclusive: 39.8 µM [inhibitor, partial curve]",–
COc1cc(-c2ccc(N=Nc3ccc4c(S(=O)(=O)O)cc(S(=O)(=O)O)c(N)c4c3O)c(OC)c2)ccc1N=Nc1ccc2c(S(=O)(=O)O)cc(S(=O)(=O)O)c(N)c2c1O,active: 25.1 µM,–
CC/C(=C/c1sc2ccc(C)cc2[n+]1CCCS(=O)(=O)[O-])SC,"inconclusive: 35.5 µM [inhibitor, partial curve]",–
CCc1ccccc1-n1c(SCC(=O)NC)nnc1-c1cccnc1,"inconclusive: 39.8 µM [inhibitor, partial curve, poor fit]",–
CCOc1ccc(-c2ccc(/C=C3/C(=N)N4C(C)=CSC4=NC3=O)o2)c([N+](=O)[O-])c1,"inconclusive: 70.8 µM [activator, single point]",–
Cc1ccc(C(C(=O)NCc2ccco2)N(C(=O)CNC(=O)c2cccs2)c2c(C)cc(C)cc2C)cc1 (stereo not drawn),"inconclusive: 70.8 µM [inhibitor, single point]",–
COc1ccc(NC(=O)Cn2c(=O)n(Cc3ccccc3OC)c(=O)c3cccnc32)cc1Cl,–,inactive: -5.75%
CC(C)[C@@H](CC(=O)N[C@@H]1CCNC[C@H]1C(=O)N[C@H](CC(=O)N[C@@H](CCC(=O)O)CC(=O)O)Cc1c[nH]c2ccccc12)NC(=O)C[C@H](CO)NC(=O)[C@@H]1CNCC[C@H]1N,–,inactive: -1.31%
Cc1ccsc1C=Nc1ccc(O)cc1,active: 31.6 µM,–
Cc1ccc(N=Nc2c(O)ccc3ccccc23)c(C)c1,active: 39.8 µM,–
CC(C)(C)C1CCC(O)CC1 (stereo not drawn),–,inactive: -0.309% [at 201 µM]
N#C/C(=C\c1ccc(O)c([N+](=O)[O-])c1)C(=O)NCc1ccccc1,–,inactive: -0.333%
C/C(=N\Nc1nccnc1Cl)c1ccc([N+](=O)[O-])cc1,"inconclusive: 70.8 µM [inhibitor, single point]",–
CC(=O)N1CCN(C2=Nc3cccc4cccc2c34)CC1,"inconclusive: 79.4 µM [inhibitor, partial curve]",–
CCOC(=O)/C(C#N)=c1/s/c(=C2\C=Cc3ccccc3N2CC)c(=O)n1CC,"inconclusive: 70.8 µM [inhibitor, single point]",–
COc1cccc(C2CCCN2Cc2nc(CC3CC3)no2)c1 (stereo not drawn),"inconclusive: 35.5 µM [inhibitor, single point]",–
